At least one structure is not confirmed: it was looked up by name or label, or the drawing left a doubt.
Assay: Loading amount in liposome (gel filtration)
Type: physicochemical
Settings: dye:DOPC; gel filtration column PD-10
Procedure: The amount of ICG-11 loadable in the liposome was examined by changing the mixing ratio between ICG-11 and dioleoylphosphatidylcholine (DOPC) as the main component of the lipid bilayer membrane. For comparison, the amount of loadable ICG was examined.
In chloroform/methanol (9:1, v/v) solution were dissolved DOPC (10 mM), cholesterol (5 mM), polyethylene glycol-modified phosphatidylethanolamine (PEG-PE, 0.5 mM), and ICG-11 (0 to 5 mM) or ICG (0 to 0.5 mM); a portion of the resultant solution was dried under reduced pressure; and a physiological saline was added to the formed thin membrane, which was then treated using a filter having a pore diameter of 100 nm to provide a liposome dispersion.
The amount of incorporation of ICG-11 into the lipid bilayer membrane when it formed a liposome was measured using the following conditions.
Liposomes into which ICG-11 or ICG was incorporated and ICG-11 or ICG released into a liposome dispersion without being incorporated into the lipid bilayer membrane were separated and determined using a gel filtration column (PD-10 from GE) (FIG. 14).

CCCCCCCC/C=C\CCCCCCCC(=O)OC[C@H](COP(=O)(O)OCCNC(=O)CCN1/C(=C/C=C/C=C/C=C/C2=[N+](CCCCS(=O)(=O)O)c3ccc4ccccc4c3C2(C)C)C(C)(C)c2c1ccc1ccccc21)OC(=O)CCCCCCC/C=C\CCCCCCCC [ICG-11, 4-(2-((1E,3E,5E,7E)-7-(3-(2-(1,2-dioleoyl-sn-glycero-3-phosphoethanolaminocarbonyl)ethyl)-1,1-dimethyl-1H-benzo[e]indol-2(3H)-ylidene)hepta-1,3,5-trienyl)-1,1-dimethyl-1H-benzo[e]indolium-3-yl)butane-1-sulfonic acid]
ratio to DOPC up to which it can be incorporated into the lipid bilayer membrane: up to 1:2

From patent US9872833B2, “Liposome composite body” (National University Corporation Tottori University, priority 2011, dated 2018)
